Experimental data taken from the supplement of paper PMC8728848.
Some of the results follow.

Key:
Experiment in all cases: glycan array binding signal (z-score within array); higher = stronger binding
Settings in all cases: glycan notation: IUPAC condensed, linker removed
[1] = target: Neu5Ac(a2-6)Gal(b1-4)GlcNAc(b1-6)[Gal(b1-3)GlcNAc(b1-3)]Gal(b1-4)Glc
Outline: (§1)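 The Consortium for Functional Glycomics database supplied 3228 glycan arrays, of which those lacking an available protein sequence were dropped. The binding signal, a within-array Z-score, was averaged across arrays of the same protein sequence and across linkers. Negative scores can be read as non-binding.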

[2] = target: Neu5Ac(a2-6)Gal(b1-4)GlcNAc(b1-6)[Gal(b1-3)]GalNAc
Outline: as §1

[3] = target: Neu5Ac(a2-6)Gal(b1-4)GlcNAc6S
Outline: as §1

Neu5Ac(a2-6)GalNAc = target: Neu5Ac(a2-6)GalNAc
Outline: as §1

[4] = target: Neu5Ac(a2-6)GalNAc(b1-4)GlcNAc
Outline: as §1

[5] = target: Neu5Ac(a2-6)GalNAc(b1-4)GlcNAc6S
Outline: as §1

[6] = target: Neu5Ac(a2-6)GlcNAc(b1-4)GlcNAc
Outline: as §1

[7] = target: Neu5Ac(a2-6)GlcNAc(b1-4)GlcNAc(b1-4)GlcNAc
Outline: as §1

Neu5Ac(a2-8)Neu5Ac = target: Neu5Ac(a2-8)Neu5Ac
Outline: as §1

[8] = target: Neu5Ac(a2-8)Neu5Ac(a2-3)Gal(b1-3)GalNAc(b1-4)[Neu5Ac(a2-3)]Gal(b1-4)Glc
Outline: as §1

[9] = target: Neu5Ac(a2-8)Neu5Ac(a2-3)Gal(b1-3)GalNAc(b1-4)[Neu5Ac(a2-8)Neu5Ac(a2-3)]Gal(b1-4)Glc
Outline: as §1

[10] = target: Neu5Ac(a2-8)Neu5Ac(a2-3)Gal(b1-4)Glc
Outline: as §1

[11] = target: Neu5Ac(a2-8)Neu5Ac(a2-3)Gal(b1-4)GlcNAc
Outline: as §1

[12] = target: Neu5Ac(a2-8)Neu5Ac(a2-3)[Gal(b1-3)GalNAc(b1-4)]Gal(b1-4)Glc
Outline: as §1

[13] = target: Neu5Ac(a2-8)Neu5Ac(a2-3)[GalNAc(b1-4)]Gal(b1-4)Glc
Outline: as §1

[14] = target: Neu5Ac(a2-8)Neu5Ac(a2-8)Neu5Ac
Outline: as §1

[15] = target: Neu5Ac(a2-8)Neu5Ac(a2-8)Neu5Ac(a2-3)Gal(b1-4)Glc
Outline: as §1

[16] = target: Neu5Ac(a2-8)Neu5Ac(a2-8)Neu5Ac(a2-3)[Gal(b1-3)GalNAc(b1-4)]Gal(b1-4)Glc
Outline: as §1

[17] = target: Neu5Ac(a2-8)Neu5Ac(a2-8)Neu5Ac(a2-3)[GalNAc(b1-4)]Gal(b1-4)Glc
Outline: as §1

[18] = target: Neu5Ac(a2-8)Neu5Ac(a2-8)Neu5Ac(a2-8)Neu5Ac(a2-3)[GalNAc(b1-4)]Gal(b1-4)Glc
Outline: as §1

[19] = target: Neu5Ac(a2-8)Neu5Gc(a2-3)Gal(b1-4)GlcNAc
Outline: as §1

[20] = target: Neu5Ac(b2-6)Gal(b1-4)GlcNAc
Outline: as §1

Neu5Ac(b2-6)GalNAc = target: Neu5Ac(b2-6)GalNAc
Outline: as §1

[21] = target: Neu5Ac9Ac(a2-3)Gal(b1-3)GlcNAc
Outline: as §1

[22] = target: Neu5Ac9Ac(a2-3)Gal(b1-4)GlcNAc
Outline: as §1

[23] = target: Neu5Ac9Ac(a2-6)Gal(b1-4)GlcNAc
Outline: as §1

[24] = target: Neu5Gc(a2-3)Gal(b1-3)GlcNAc
Outline: as §1

[25] = target: Neu5Gc(a2-3)Gal(b1-3)[Fuc(a1-4)]GlcNAc
Outline: as §1

Neu5Gc(a2-3)Gal(b1-4)Glc = target: Neu5Gc(a2-3)Gal(b1-4)Glc
Outline: as §1

[26] = target: Neu5Gc(a2-3)Gal(b1-4)GlcNAc
Outline: as §1

[27] = target: Neu5Gc(a2-3)Gal(b1-4)GlcNAc(b1-3)Gal(b1-4)GlcNAc(b1-2)Man(a1-3)[Neu5Gc(a2-3)Gal(b1-4)GlcNAc(b1-3)Gal(b1-4)GlcNAc(b1-2)Man(a1-6)]Man(b1-4)GlcNAc(b1-4)GlcNAc
Outline: as §1

[28] = target: Neu5Gc(a2-3)Gal(b1-4)[Fuc(a1-3)]GlcNAc
Outline: as §1

[29] = target: Neu5Gc(a2-6)Gal(b1-4)GlcNAc
Outline: as §1

Neu5Gc(a2-6)GalNAc = target: Neu5Gc(a2-6)GalNAc
Outline: as §1

[30] = target: Neu5Gc(a2-8)Neu5Ac(a2-3)Gal(b1-4)GlcNAc
Outline: as §1

[31] = target: Neu5Gc(a2-8)Neu5Gc(a2-3)Gal(b1-4)GlcNAc
Outline: as §1

[32] = target: Neu5Gc(a2-8)Neu5Gc(a2-3)Gal(b1-4)GlcNAc(b1-3)Gal(b1-4)GlcNAc
Outline: as §1

[33] = target: Neu5Gc(a2-8)Neu5Gc(a2-6)Gal(b1-4)GlcNAc
Outline: as §1

[34] = target: Neu5Gc(b2-6)Gal(b1-4)GlcNAc
Outline: as §1

B1: DCIR1 (Mus musculus), Q9QZ15 (protein)
chain: MASEITYAEVKFKNESNSLHTYSESPAAPREKPIRDLRKPGSPSLLLTSLMLLLLLLAITFLVAFIIYFQKYSQLLEEKKAAKNIMHNELNCTKSVSPMEDKVWSCCPKDWRLFGSHCYLVPTVSSSASWNKSEENCSRMGAHLVVIQSQEEQDFITGILDTHAAYFIGLWDTGHRQWQWVDQTPYEESITFWHNGEPSSGNEKCATIIYRWKTGWGWNDISCSLKQKSVCQMKKINL
For B1, the “glycan array binding signal (z-score)” value [1] was -0.401, the “glycan array binding signal (z-score)” value [2] was 0.357 and the “glycan array binding signal (z-score)” value [3] was 0.423. For the same binder, the “glycan array binding signal (z-score)” value (Neu5Ac(a2-6)GalNAc) was 2.86, the “glycan array binding signal (z-score)” value [4] was -0.517 and the “glycan array binding signal (z-score)” value [5] was -0.058. For the same binder, the “glycan array binding signal (z-score)” value [6] was -0.374, the “glycan array binding signal (z-score)” value [7] was -0.721 and the “glycan array binding signal (z-score)” value (Neu5Ac(a2-8)Neu5Ac) was -0.794. For the same binder, the “glycan array binding signal (z-score)” value [8] was -0.936, the “glycan array binding signal (z-score)” value [9] was -0.103 and the “glycan array binding signal (z-score)” value [10] was -0.987. For the same binder, the “glycan array binding signal (z-score)” value [11] was -1.1, the “glycan array binding signal (z-score)” value [12] was -0.632 and the “glycan array binding signal (z-score)” value [13] was -0.384. The “glycan array binding signal (z-score)” value [14] was -0.793, the “glycan array binding signal (z-score)” value [15] was 0.858 and the “glycan array binding signal (z-score)” value [16] was 2.88. The “glycan array binding signal (z-score)” value [17] was -1.03, the “glycan array binding signal (z-score)” value [18] was -0.794 and the “glycan array binding signal (z-score)” value [19] was -1. For the same binder, the “glycan array binding signal (z-score)” value [20] was -0.642, the “glycan array binding signal (z-score)” value (Neu5Ac(b2-6)GalNAc) was -0.75 and the “glycan array binding signal (z-score)” value [21] was 0.789. For the same binder, the “glycan array binding signal (z-score)” value [22] was -0.173, the “glycan array binding signal (z-score)” value [23] was -0.931 and the “glycan array binding signal (z-score)” value [24] was -0.558. For the same binder, the “glycan array binding signal (z-score)” value [25] was 0.189, the “glycan array binding signal (z-score)” value (Neu5Gc(a2-3)Gal(b1-4)Glc) was -0.47 and the “glycan array binding signal (z-score)” value [26] was -0.678. The “glycan array binding signal (z-score)” value [27] was 0.353, the “glycan array binding signal (z-score)” value [28] was 0.039 and the “glycan array binding signal (z-score)” value [29] was -0.428. For the same binder, the “glycan array binding signal (z-score)” value (Neu5Gc(a2-6)GalNAc) was -0.77, the “glycan array binding signal (z-score)” value [30] was -1.04 and the “glycan array binding signal (z-score)” value [31] was -0.65. For the same binder, the “glycan array binding signal (z-score)” value [32] was -1.03, the “glycan array binding signal (z-score)” value [33] was -0.802 and the “glycan array binding signal (z-score)” value [34] was -0.579.
